From the supplement of paper PMC10849652
This is one part of the list.

By UniProt entry, the sequences of proteins in these tests, tags left out. Where a name states a change or a piece, a line headed by the entry shows the natural chain unless it says otherwise.
UniProt Q9NZB8: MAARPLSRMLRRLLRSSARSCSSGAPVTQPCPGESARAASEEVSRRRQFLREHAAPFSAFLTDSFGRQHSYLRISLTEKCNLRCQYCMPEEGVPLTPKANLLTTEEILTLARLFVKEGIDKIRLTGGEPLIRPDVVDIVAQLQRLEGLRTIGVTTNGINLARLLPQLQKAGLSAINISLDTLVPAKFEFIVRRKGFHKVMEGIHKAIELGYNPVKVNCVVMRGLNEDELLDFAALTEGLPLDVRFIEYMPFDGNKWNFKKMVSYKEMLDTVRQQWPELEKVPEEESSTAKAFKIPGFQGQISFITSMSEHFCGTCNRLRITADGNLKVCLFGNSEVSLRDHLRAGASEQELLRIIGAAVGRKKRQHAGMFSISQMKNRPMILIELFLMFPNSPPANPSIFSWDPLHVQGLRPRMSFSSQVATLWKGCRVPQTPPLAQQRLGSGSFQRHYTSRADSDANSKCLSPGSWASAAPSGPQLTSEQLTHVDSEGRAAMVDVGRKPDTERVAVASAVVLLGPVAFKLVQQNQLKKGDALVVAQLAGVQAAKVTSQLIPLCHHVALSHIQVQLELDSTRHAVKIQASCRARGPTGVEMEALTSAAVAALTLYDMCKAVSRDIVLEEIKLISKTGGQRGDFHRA
UniProt Q8TAP9: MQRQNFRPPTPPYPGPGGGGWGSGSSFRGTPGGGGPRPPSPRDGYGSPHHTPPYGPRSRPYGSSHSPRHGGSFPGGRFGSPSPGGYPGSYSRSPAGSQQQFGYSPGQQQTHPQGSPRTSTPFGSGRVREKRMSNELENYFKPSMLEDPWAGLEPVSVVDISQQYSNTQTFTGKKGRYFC
UniProt Q9HC36: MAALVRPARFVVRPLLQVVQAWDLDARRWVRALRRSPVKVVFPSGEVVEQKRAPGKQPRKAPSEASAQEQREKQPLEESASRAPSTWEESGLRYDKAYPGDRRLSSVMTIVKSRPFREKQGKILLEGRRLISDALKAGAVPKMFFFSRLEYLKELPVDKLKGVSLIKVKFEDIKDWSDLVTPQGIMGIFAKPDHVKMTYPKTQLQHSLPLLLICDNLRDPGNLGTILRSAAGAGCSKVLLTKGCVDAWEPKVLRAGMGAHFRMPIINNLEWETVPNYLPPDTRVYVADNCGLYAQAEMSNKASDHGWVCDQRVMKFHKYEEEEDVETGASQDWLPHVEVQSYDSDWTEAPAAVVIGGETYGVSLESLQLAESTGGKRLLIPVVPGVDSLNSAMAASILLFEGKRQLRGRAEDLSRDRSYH
UniProt Q03111: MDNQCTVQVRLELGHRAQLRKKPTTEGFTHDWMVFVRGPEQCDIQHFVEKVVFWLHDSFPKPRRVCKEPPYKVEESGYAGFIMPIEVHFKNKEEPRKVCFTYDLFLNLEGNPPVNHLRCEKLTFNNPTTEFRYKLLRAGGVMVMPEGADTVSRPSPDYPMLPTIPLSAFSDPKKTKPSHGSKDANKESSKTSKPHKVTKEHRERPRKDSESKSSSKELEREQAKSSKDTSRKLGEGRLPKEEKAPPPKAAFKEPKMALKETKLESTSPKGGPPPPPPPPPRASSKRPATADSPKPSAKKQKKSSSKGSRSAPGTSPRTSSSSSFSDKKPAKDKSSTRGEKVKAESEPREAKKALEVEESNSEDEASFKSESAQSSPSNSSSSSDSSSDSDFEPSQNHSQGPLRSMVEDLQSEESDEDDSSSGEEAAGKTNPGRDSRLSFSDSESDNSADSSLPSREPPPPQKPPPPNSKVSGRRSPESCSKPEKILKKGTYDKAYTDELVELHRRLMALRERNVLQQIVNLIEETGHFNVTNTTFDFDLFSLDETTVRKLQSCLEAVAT
UniProt P46013: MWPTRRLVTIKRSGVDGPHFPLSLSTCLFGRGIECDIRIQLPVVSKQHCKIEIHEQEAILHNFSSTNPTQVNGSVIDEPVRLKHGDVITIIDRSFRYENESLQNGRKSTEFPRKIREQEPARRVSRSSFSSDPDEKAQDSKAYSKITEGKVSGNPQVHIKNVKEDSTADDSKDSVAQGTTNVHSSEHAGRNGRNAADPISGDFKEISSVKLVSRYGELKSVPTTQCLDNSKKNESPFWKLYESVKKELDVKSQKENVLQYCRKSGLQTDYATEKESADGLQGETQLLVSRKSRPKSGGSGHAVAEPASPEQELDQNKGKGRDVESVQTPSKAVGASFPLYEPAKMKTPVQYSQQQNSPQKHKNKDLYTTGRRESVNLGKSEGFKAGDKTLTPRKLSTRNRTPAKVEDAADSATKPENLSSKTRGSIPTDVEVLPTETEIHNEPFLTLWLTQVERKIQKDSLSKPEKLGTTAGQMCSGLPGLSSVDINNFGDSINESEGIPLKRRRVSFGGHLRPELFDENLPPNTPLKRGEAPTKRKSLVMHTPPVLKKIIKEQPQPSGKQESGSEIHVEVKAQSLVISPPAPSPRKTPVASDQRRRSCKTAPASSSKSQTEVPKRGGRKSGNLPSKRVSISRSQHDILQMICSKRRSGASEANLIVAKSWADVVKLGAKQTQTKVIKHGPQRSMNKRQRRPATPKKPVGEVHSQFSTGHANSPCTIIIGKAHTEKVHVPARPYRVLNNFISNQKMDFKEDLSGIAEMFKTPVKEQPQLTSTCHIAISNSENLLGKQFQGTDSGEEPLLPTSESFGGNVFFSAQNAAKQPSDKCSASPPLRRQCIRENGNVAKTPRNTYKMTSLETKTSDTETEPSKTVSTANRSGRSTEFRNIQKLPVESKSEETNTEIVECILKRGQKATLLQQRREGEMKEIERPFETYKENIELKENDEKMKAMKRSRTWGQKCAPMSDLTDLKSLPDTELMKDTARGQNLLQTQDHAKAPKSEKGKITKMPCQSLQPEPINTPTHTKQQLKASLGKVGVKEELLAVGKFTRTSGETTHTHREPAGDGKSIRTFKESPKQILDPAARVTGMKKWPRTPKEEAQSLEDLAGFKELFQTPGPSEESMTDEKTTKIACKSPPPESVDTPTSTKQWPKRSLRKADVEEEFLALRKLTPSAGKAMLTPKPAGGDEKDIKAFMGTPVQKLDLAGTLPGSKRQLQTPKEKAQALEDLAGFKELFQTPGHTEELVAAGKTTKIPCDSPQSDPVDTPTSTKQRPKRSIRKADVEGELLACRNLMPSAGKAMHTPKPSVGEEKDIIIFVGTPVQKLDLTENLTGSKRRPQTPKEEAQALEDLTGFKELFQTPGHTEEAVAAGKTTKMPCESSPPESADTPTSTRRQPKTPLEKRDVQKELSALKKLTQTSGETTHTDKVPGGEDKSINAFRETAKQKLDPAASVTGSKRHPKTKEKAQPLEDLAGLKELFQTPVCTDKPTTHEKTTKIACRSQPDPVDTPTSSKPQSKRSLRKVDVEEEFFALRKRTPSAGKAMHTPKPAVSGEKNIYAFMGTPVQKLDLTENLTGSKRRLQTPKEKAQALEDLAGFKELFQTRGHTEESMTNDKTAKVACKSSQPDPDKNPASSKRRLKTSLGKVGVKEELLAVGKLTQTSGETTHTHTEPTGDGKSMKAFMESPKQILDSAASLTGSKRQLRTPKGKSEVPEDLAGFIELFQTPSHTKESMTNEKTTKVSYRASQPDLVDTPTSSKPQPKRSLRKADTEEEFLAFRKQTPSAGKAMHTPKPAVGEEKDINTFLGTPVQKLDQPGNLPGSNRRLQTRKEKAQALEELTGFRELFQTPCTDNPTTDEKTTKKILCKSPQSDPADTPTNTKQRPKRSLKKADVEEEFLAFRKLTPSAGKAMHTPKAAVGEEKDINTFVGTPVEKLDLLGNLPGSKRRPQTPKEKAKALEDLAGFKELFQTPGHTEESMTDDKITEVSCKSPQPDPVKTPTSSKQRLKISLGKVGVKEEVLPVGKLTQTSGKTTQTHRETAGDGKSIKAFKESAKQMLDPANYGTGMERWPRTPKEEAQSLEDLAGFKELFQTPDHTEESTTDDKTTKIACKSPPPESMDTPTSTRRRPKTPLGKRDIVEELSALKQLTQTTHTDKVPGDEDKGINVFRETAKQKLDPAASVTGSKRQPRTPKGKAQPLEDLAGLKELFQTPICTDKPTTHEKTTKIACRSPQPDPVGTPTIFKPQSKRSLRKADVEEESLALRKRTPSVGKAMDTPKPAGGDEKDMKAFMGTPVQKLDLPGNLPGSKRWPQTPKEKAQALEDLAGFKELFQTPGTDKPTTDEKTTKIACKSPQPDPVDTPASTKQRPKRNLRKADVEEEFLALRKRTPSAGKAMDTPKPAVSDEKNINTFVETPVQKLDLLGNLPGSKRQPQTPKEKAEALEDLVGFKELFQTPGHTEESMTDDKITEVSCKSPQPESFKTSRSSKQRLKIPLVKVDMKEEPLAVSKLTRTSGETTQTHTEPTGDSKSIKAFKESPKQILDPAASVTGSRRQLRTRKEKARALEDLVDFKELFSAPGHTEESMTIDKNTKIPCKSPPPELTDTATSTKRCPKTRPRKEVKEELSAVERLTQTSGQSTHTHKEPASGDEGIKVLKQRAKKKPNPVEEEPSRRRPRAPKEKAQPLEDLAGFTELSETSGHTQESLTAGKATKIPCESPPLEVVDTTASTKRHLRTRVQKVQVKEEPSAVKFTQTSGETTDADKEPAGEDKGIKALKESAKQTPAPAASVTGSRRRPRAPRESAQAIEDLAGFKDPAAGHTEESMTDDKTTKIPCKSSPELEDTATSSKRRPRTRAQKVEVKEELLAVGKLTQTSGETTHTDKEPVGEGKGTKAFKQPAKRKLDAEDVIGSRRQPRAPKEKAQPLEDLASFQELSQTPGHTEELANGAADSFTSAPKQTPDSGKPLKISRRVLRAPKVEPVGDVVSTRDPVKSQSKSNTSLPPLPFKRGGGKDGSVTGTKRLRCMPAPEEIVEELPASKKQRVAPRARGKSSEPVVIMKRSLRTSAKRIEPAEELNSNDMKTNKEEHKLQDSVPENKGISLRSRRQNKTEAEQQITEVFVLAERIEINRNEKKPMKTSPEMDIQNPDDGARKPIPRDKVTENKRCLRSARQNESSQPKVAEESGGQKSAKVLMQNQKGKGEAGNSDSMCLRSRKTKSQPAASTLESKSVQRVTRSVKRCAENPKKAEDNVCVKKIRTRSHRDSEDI
UniProt Q96EY8: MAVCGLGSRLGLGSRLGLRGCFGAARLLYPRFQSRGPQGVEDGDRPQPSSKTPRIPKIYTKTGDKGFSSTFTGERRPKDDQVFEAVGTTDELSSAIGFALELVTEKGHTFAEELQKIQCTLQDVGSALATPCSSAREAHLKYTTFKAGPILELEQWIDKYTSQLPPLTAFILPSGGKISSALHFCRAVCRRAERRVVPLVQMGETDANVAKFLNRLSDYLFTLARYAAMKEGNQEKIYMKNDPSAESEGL
UniProt Q8IY33: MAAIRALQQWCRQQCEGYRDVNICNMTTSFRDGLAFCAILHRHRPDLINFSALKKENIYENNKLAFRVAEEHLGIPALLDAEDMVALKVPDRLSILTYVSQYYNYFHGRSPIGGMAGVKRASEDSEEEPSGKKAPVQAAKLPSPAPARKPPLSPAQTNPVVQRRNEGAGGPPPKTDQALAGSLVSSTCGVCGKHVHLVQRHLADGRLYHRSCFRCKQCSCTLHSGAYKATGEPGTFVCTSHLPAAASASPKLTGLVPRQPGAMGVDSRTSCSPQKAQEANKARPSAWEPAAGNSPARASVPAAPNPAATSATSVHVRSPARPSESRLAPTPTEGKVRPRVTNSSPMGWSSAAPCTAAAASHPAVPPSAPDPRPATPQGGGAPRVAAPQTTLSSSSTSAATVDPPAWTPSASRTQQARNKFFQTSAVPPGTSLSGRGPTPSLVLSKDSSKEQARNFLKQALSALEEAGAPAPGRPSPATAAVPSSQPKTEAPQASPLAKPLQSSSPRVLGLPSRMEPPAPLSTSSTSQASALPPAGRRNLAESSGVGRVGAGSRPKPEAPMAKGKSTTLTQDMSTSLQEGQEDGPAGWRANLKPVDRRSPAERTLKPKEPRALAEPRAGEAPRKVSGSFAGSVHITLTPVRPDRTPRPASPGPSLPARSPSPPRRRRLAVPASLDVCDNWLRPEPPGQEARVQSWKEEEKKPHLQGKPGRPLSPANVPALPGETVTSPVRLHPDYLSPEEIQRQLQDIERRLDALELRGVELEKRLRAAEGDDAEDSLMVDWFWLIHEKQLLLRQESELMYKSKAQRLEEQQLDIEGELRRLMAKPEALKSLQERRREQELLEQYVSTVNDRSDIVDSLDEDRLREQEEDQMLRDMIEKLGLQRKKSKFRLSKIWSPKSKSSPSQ
UniProt Q9Y3A3: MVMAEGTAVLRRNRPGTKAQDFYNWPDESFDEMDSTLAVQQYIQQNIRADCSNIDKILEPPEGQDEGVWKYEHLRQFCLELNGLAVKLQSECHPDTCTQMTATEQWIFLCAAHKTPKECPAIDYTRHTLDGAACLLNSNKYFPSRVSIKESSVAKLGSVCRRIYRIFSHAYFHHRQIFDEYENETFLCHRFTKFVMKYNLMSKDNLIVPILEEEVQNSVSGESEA

Assays:
Assay in all cases: log2 fold change, soluble protein after heating vs DMSO (PISA); higher = thermal stabilisation; K562 cells, 10 uM, 30 min; active = over 0.2 and 3.5 SD of the protein, either way, in both replicates (recomputed)
[1] = compound: CC[C@@H]1C(=O)N(C)c2cnc(Nc3ccc(C(=O)NC4CCN(C)CC4)cc3OC)nc2N1C1CCCC1
Method in brief: (§1)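 K562 cells (2×10^6 cells/mL) were treated with 10 μM compound for 30 min, and aliquots were heated for 3 min over 48°C-58°C. Pooled aliquots were extracted in PBS with 0.5% NP-40 at 4°C, and the supernatant after 21,000xg for 90 min was measured by TMTpro 16plex LC-MS/MS with channel sums equalised. Reported thermal stability, relative to control samples and from duplicates, is a log2 fold change.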

[2] = compound: CC[C@@H]1C(=O)N(C)c2cnc(Nc3ccc(C(=O)N[C@H]4CC[C@H](N5CCN(CC6CC6)CC5)CC4)cc3OC)nc2N1C(C)C [volasertib]
Method in brief: as §1

[3] = compound: CC[C@H](C)N1C=C(C2=C(C=C(C=C21)C3=CN=C(C=C3)N4CCNCC4)C(=O)NCC5=C(C=C(NC5=O)C)C)C
Method in brief: as §1

[4] = compound: CC[C@H](C)[C@@H](C(=O)N[C@@H]([C@@H](C)O)C(=O)N[C@@H](CC(C)C)C(=O)[C@]1(CO1)C)NC(=O)[C@H]([C@@H](C)CC)N(C)C(=O)C [epoxomicin]
Method in brief: as §1

[5] = compound: CCn1c(C(=O)N(C2CC2)C2CC2)cc2c3c(ncn3C)c(Nc3cc(C)n(C)n3)nc21
Method in brief: as §1

[6] = compound: CCn1cc(-c2ccnc3[nH]c(-c4cccc(CN(C)C)c4)cc23)c(-c2ccc(NC(=O)N(C)C)cc2)n1
Method in brief: as §1

[7] = compound: CN(C)CC(=O)Nc1ccc2[nH]c(=O)c3ccccc3c2c1
Method in brief: as §1

[8] = compound: CN(CCOC1=CC=C(C=C1)C[C@H]2C(=O)NC(=O)S2)C3=CC=CC=N3 (racemic) [rosiglitazone]
Method in brief: as §1

[9] = compound: CN1C2=C(C3=C1C(=O)N(N=C3)CC4=CC(=CC=C4)N)SC(=C2)S(=O)C
Method in brief: as §1

[10] = compound: CN1CCC(CNc2ccc3ncc(-c4cccc(OC(F)(F)F)c4)n3n2)CC1
Method in brief: as §1

[11] = compound: CN1CCN(CCOc2cc(OC3CCOCC3)c3c(Nc4c(Cl)ccc5c4OCO5)ncnc3c2)CC1 [saracatinib]
Method in brief: as §1

[12] = compound: CN1CCN(c2nc(C3=C(c4c[nH]c5ccccc45)C(=O)NC3=O)c3ccccc3n2)CC1 [sotrastaurin]
Method in brief: as §1

[13] = compound: CN1CC[C@H](c2c(O)cc(O)c3c(=O)cc(-c4ccccc4Cl)oc23)[C@H](O)C1 [alvocidib]
Method in brief: as §1

[14] = compound: CN1CCc2c(c3ccccc3n2Cc2ccc(C(=O)NO)cc2)C1 [Tubastatin A]
Method in brief: as §1

[15] = compound: CNC(=O)C1=CC=CC=C1NC2=NC(=NC=C2Cl)NC3=C(C=C(C=C3)N4CCOCC4)OC
Method in brief: as §1

[16] = compound: CNC(=O)c1ccc(Nc2ncc(C(F)(F)F)c(NCc3nccnc3N(C)S(C)(=O)=O)n2)cc1 [defactinib]
Method in brief: as §1

[17] = compound: CNCc1ccc(-c2[nH]c3cc(F)cc4c3c2CCNC4=O)cc1 [rucaparib]
Method in brief: as §1

[18] = compound: CNc1nc(-c2ccc3c(N)n[nH]c3c2)cc(N2C[C@@H](C(=O)NC3CCCCC3)CC[C@H]2C)n1
Method in brief: as §1

[19] = compound: COC(=O)N[C@@H](C)CNc1nccc(-c2cn(C(C)C)nc2-c2cc(Cl)cc(NS(C)(=O)=O)c2F)n1 [encorafenib]
Method in brief: as §1

[20] = compound: COC(=O)[C@H](CCSC)NC(=O)C1=C(C=C(C=C1)NC[C@H](CS)N)C2=CC=CC=C2
Method in brief: as §1

Measured: log2 fold change

MOCS1 isoform 8 (UniProt Q9NZB8)
inactive: [1] 0.056 | [2] 0.038 | [3] 0.051 | [4] -0.053 | [5] 0.018 | [6] 0.11 | [7] 0.092 | [8] -0.079 | [9] 0.094 | [10] 0.114 | [11] 0.11 | [12] -0.01 | [13] -0.028 | [14] 0.066 | [15] 0.066 | [16] 0.02 | [17] -0.059 | [18] -0.076 | [19] -0.121 | [20] 0.077

MPLKIP (UniProt Q8TAP9)
inactive: [1] 0.042 | [2] 0.122 | [3] -0.077 | [4] -0.037 | [5] -0.021 | [6] -0.021 | [7] 0.015 | [8] -0.026 | [9] 0.001 | [10] -0.021 | [11] 0.006 | [12] 0.099 | [13] 0.054 | [14] -0.056 | [15] 0.18 | [16] 0.049 | [17] 0.006 | [18] -0.06 | [19] -0.02 | [20] -0.032

MRM3 (UniProt Q9HC36)
inactive: [1] 0.122 | [2] 0.3 | [3] 0.012 | [4] -0.287 | [5] 0.087 | [6] 0.165 | [7] -0.08 | [8] -0.258 | [9] 0.383 | [10] 0.198 | [11] -0.094 | [12] -0.01 | [13] 0.191 | [14] 0.201 | [15] 0.052 | [16] 0.39 | [17] 0.271 | [18] 0.13 | [19] 0.148 | [20] -0.053

MRPL24 (UniProt Q96A35)
inactive: [1] 0.02 | [2] 0.24 | [3] 0.136 | [4] -0.027 | [5] -0.039 | [6] -0.186 | [7] -0.012 | [8] -0.006 | [9] 0.067 | [10] 0.04 | [11] -0.14 | [12] -0.029 | [13] 0.124 | [14] 0.054 | [15] -0.066 | [16] 0.208 | [17] 0.039 | [18] 0.17 | [19] 0.027 | [20] -0.033

MRPL27 (UniProt Q9P0M9)
inactive: [1] 0.059 | [2] 0.28 | [3] 0.206 | [4] 0.103 | [5] -0.072 | [6] 0.023 | [7] -0.118 | [8] -0.033 | [9] 0.103 | [10] 0.13 | [11] -0.158 | [12] -0.052 | [13] 0.117 | [14] 0.061 | [15] 0.069 | [16] 0.27 | [17] 0.125 | [18] 0.162 | [19] 0.089 | [20] -0.061

MLLT1 (UniProt Q03111)
inactive: [1] -0.003 | [2] -0.034 | [3] -0.172 | [4] -0.044 | [5] 0.028 | [6] -0.03 | [7] -0.057 | [8] -0.058 | [9] -0.039 | [10] -0.023 | [11] 0.032 | [12] -0.05 | [13] -0.009 | [14] 0.142 | [15] 0.014 | [16] -0.035 | [17] 0.025 | [18] -0.055 | [19] 0.07 | [20] 0.097

MKI67 (UniProt P46013)
inactive: [1] -0.053 | [2] -0.283 | [3] -0.032 | [4] -0.097 | [5] 0.029 | [6] 0.092 | [7] 0.026 | [8] -0.086 | [9] 0.094 | [10] -0.087 | [11] -0.042 | [12] 0.073 | [13] 0.112 | [14] -0.018 | [15] 0.007 | [16] 0.024 | [17] 0.105 | [18] 0.115 | [19] -0.037 | [20] 0.037

MRPL3 (UniProt P09001)
inactive: [1] 0.116 | [2] 0.161 | [3] 0.093 | [4] -0.034 | [5] -0.029 | [6] -0.054 | [7] -0.007 | [8] -0.037 | [9] 0.092 | [10] 0.149 | [11] -0.122 | [12] -0.071 | [13] 0.08 | [14] 0.098 | [15] -0.014 | [16] 0.189 | [17] 0.111 | [18] 0.235 | [19] 0.148 | [20] -0.051

MRPL39 (UniProt Q9NYK5)
inactive: [1] 0.071 | [2] 0.057 | [3] 0.014 | [4] -0.025 | [5] 0.033 | [6] -0.032 | [7] -0.033 | [8] -0.018 | [9] 0.031 | [10] 0.015 | [11] -0.123 | [12] -0.032 | [13] 0.079 | [14] 0.04 | [15] 0.016 | [16] 0.089 | [17] 0.073 | [18] 0.073 | [19] 0.058 | [20] -0.033

MRPL11 (UniProt Q9Y3B7)
inactive: [1] 0.092 | [2] 0.153 | [3] 0.098 | [4] -0.027 | [5] -0.041 | [6] -0.054 | [7] 0.038 | [8] -0.052 | [9] 0.06 | [10] 0.075 | [11] -0.148 | [12] -0.028 | [13] 0.117 | [14] 0.084 | [15] 0.018 | [16] 0.161 | [17] 0.115 | [18] 0.136 | [19] 0.138 | [20] -0.038

MMAB (UniProt Q96EY8)
inactive: [1] 0.037 | [2] -0.025 | [3] -0.035 | [4] -0.035 | [5] -0.006 | [6] 0.03 | [7] -0.025 | [8] 0.005 | [9] -0.037 | [10] -0.011 | [11] 0.029 | [12] 0.07 | [13] -0.006 | [14] 0.036 | [15] -0.025 | [16] 0.019 | [17] -0.024 | [18] -0.035 | [19] -0.032 | [20] -0.06

MICALL2 (UniProt Q8IY33)
inactive: [1] -0.079 | [2] -0.056 | [3] 0.084 | [4] 0.099 | [5] -0.046 | [6] -0.071 | [7] 0.097 | [8] 0.122 | [9] -0.009 | [10] -0.059 | [11] -0.087 | [12] 0.02 | [13] -0.145 | [14] 0.075 | [15] -0.021 | [16] -0.131 | [17] 0.027 | [18] 0.082 | [19] 0.046 | [20] -0.002

MOB4 (UniProt Q9Y3A3)
inactive: [1] 0.091 | [2] -0.032 | [3] 0.008 | [4] 0.002 | [5] -0.035 | [6] -0.005 | [7] 0.019 | [8] 0.018 | [9] -0.035 | [10] 0.03 | [11] 0.082 | [12] 0.014 | [13] -0.06 | [14] -0.063 | [15] -0.003 | [16] -0.065 | [17] -0.049 | [18] 0.004 | [19] 0.051 | [20] 0.025

MRPL16 (UniProt Q9NX20)
inactive: [1] 0.081 | [2] 0.241 | [3] 0.068 | [4] -0.042 | [5] -0.066 | [6] 0 | [7] 0.019 | [8] 0.034 | [9] 0.198 | [10] 0.177 | [11] -0.033 | [12] -0.044 | [13] 0.165 | [14] 0.081 | [15] -0.057 | [16] 0.179 | [17] 0.175 | [18] 0.226 | [19] -0.053 | [20] -0.121

MRPL55 isoform 2 (UniProt Q7Z7F7)
inactive: [1] 0.004 | [2] 0.252 | [3] 0.103 | [4] 0.074 | [5] -0.029 | [6] 0.052 | [7] -0.013 | [8] 0.056 | [9] 0.009 | [10] 0.074 | [11] -0.02 | [12] -0.112 | [13] -0.015 | [14] 0.075 | [15] -0.003 | [16] 0.124 | [17] 0.122 | [18] 0.112 | [19] 0.091 | [20] -0.05

MRPL15 (UniProt Q9P015)
inactive: [1] 0.134 | [2] 0.165 | [3] 0.073 | [4] -0.029 | [5] -0.015 | [6] -0.04 | [7] -0.006 | [8] -0.004 | [9] 0.05 | [10] 0.059 | [11] -0.127 | [12] -0.053 | [13] 0.146 | [14] 0.111 | [15] -0.03 | [16] 0.193 | [17] 0.138 | [18] 0.14 | [19] 0.112 | [20] -0.026
